From the supplement of paper PMC8728848
This is one part of the list.

What was measured:
Test in all cases: glycan array binding signal (z-score within array); higher = stronger binding
Details in all cases: glycan notation: IUPAC condensed, linker removed
[1] = biological target: Gal(b1-3)[Fuc(a1-4)]GlcNAc(b1-3)Gal(b1-4)[Fuc(a1-3)]GlcNAc
Summary of the method: (§1)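 The binding signal is a Z-score computed within each array and averaged over linkers. Arrays of the same protein sequence at different concentrations or buffers were also averaged together. Data originate from 3228 arrays in the Consortium for Functional Glycomics database, kept only where the protein sequence was available.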

[2] = biological target: Gal(b1-3)[Fuc(a1-4)]GlcNAc(b1-6)GalNAc
Summary of the method: as §1

[3] = biological target: Gal(b1-3)[GlcNAc(b1-6)]GalNAc
Summary of the method: as §1

[4] = biological target: Gal(b1-3)[Neu5Ac(a2-6)]GalNAc
Summary of the method: as §1

[5] = biological target: Gal(b1-3)[Neu5Ac(a2-6)]GlcNAc(b1-4)Gal(b1-4)Glc
Summary of the method: as §1

[6] = biological target: Gal(b1-3)[Neu5Ac(b2-6)]GalNAc
Summary of the method: as §1

Gal(b1-4)Gal = biological target: Gal(b1-4)Gal
Summary of the method: as §1

[7] = biological target: Gal(b1-4)GalNAc(a1-3)[Fuc(a1-2)]Gal(b1-4)GlcNAc
Summary of the method: as §1

[8] = biological target: Gal(b1-4)GalNAc(b1-3)[Fuc(a1-2)]Gal(b1-4)GlcNAc
Summary of the method: as §1

Gal(b1-4)Glc = biological target: Gal(b1-4)Glc
Summary of the method: as §1

Gal(b1-4)Glc6S = biological target: Gal(b1-4)Glc6S
Summary of the method: as §1

Gal(b1-4)GlcNAc = biological target: Gal(b1-4)GlcNAc
Summary of the method: as §1

[9] = biological target: Gal(b1-4)GlcNAc(a1-6)Gal(b1-4)GlcNAc
Summary of the method: as §1

Gal(b1-4)GlcNAc(b1-2)Man = biological target: Gal(b1-4)GlcNAc(b1-2)Man
Summary of the method: as §1

[10] = biological target: Gal(b1-4)GlcNAc(b1-2)Man(a1-3)Man(b1-4)GlcNAc(b1-4)GlcNAc
Summary of the method: as §1

[11] = biological target: Gal(b1-4)GlcNAc(b1-2)Man(a1-3)[Gal(b1-4)GlcNAc(b1-2)Man(a1-6)]Man(b1-4)GlcNAc(b1-4)GlcNAc
Summary of the method: as §1

[12] = biological target: Gal(b1-4)GlcNAc(b1-2)Man(a1-3)[Gal(b1-4)GlcNAc(b1-2)Man(a1-6)]Man(b1-4)GlcNAc(b1-4)[Fuc(a1-6)]GlcNAc
Summary of the method: as §1

[13] = biological target: Gal(b1-4)GlcNAc(b1-2)Man(a1-3)[Gal(b1-4)GlcNAc(b1-2)Man(a1-6)][Gal(b1-4)GlcNAc(b1-4)]Man(b1-4)GlcNAc(b1-4)[Fuc(a1-6)]GlcNAc
Summary of the method: as §1

[14] = biological target: Gal(b1-4)GlcNAc(b1-2)Man(a1-3)[Gal(b1-4)GlcNAc(b1-2)Man(a1-6)][GlcNAc(b1-4)]Man(b1-4)GlcNAc(b1-4)[Fuc(a1-6)]GlcNAc
Summary of the method: as §1

[15] = biological target: Gal(b1-4)GlcNAc(b1-2)Man(a1-3)[GlcNAc(b1-2)Man(a1-6)]Man(b1-4)GlcNAc(b1-4)GlcNAc
Summary of the method: as §1

[16] = biological target: Gal(b1-4)GlcNAc(b1-2)Man(a1-3)[GlcNAc(b1-4)][Gal(b1-4)GlcNAc(b1-2)Man(a1-6)]Man(b1-4)GlcNAc(b1-4)GlcNAc
Summary of the method: as §1

[17] = biological target: Gal(b1-4)GlcNAc(b1-2)Man(a1-3)[Man(a1-6)]Man(b1-4)GlcNAc(b1-4)GlcNAc
Summary of the method: as §1

[18] = biological target: Gal(b1-4)GlcNAc(b1-2)Man(a1-6)Man(b1-4)GlcNAc(b1-4)GlcNAc
Summary of the method: as §1

[19] = biological target: Gal(b1-4)GlcNAc(b1-2)Man(a1-6)[GlcNAc(b1-2)Man(a1-3)]Man(b1-4)GlcNAc(b1-4)GlcNAc
Summary of the method: as §1

[20] = biological target: Gal(b1-4)GlcNAc(b1-2)Man(a1-6)[Man(a1-3)]Man(b1-4)GlcNAc(b1-4)GlcNAc
Summary of the method: as §1

[21] = biological target: Gal(b1-4)GlcNAc(b1-2)[Gal(b1-4)GlcNAc(b1-4)]Man(a1-3)[Gal(b1-4)GlcNAc(b1-2)Man(a1-6)]Man(b1-4)GlcNAc(b1-4)GlcNAc
Summary of the method: as §1

[22] = biological target: Gal(b1-4)GlcNAc(b1-2)[Gal(b1-4)GlcNAc(b1-4)]Man(a1-3)[Gal(b1-4)GlcNAc(b1-2)[Gal(b1-4)GlcNAc(b1-6)]Man(a1-6)]Man(b1-4)GlcNAc(b1-4)GlcNAc
Summary of the method: as §1

[23] = biological target: Gal(b1-4)GlcNAc(b1-2)[Gal(b1-4)GlcNAc(b1-4)]Man(a1-3)[GlcNAc(b1-4)][Gal(b1-4)GlcNAc(b1-2)Man(a1-6)]Man(b1-4)GlcNAc(b1-4)GlcNAc
Summary of the method: as §1

[24] = biological target: Gal(b1-4)GlcNAc(b1-2)[Gal(b1-4)GlcNAc(b1-4)]Man(a1-3)[GlcNAc(b1-4)][Gal(b1-4)GlcNAc(b1-2)[Gal(b1-4)GlcNAc(b1-6)]Man(a1-6)]Man(b1-4)GlcNAc(b1-4)GlcNAc
Summary of the method: as §1

[25] = biological target: Gal(b1-4)GlcNAc(b1-2)[Gal(b1-4)GlcNAc(b1-6)]Man(a1-6)[Gal(b1-4)GlcNAc(b1-2)Man(a1-3)]Man(b1-4)GlcNAc(b1-4)GlcNAc
Summary of the method: as §1

[26] = biological target: Gal(b1-4)GlcNAc(b1-2)[Gal(b1-4)GlcNAc(b1-6)]Man(a1-6)[Gal(b1-4)GlcNAc(b1-2)Man(a1-3)]Man(b1-4)GlcNAc(b1-4)[Fuc(a1-6)]GlcNAc
Summary of the method: as §1

[27] = biological target: Gal(b1-4)GlcNAc(b1-2)[Gal(b1-4)GlcNAc(b1-6)]Man(a1-6)[GlcNAc(b1-4)][Gal(b1-4)GlcNAc(b1-2)Man(a1-3)]Man(b1-4)GlcNAc(b1-4)GlcNAc
Summary of the method: as §1

[28] = biological target: Gal(b1-4)GlcNAc(b1-2)[Gal(b1-4)GlcNAc(b1-6)]Man(a1-6)[GlcNAc(b1-4)][Gal(b1-4)GlcNAc(b1-2)[Gal(b1-4)GlcNAc(b1-4)]Man(a1-3)]Man(b1-4)GlcNAc(b1-4)[Fuc(a1-6)]GlcNAc
Summary of the method: as §1

[29] = biological target: Gal(b1-4)GlcNAc(b1-3)Gal(b1-3)GalNAc
Summary of the method: as §1

[30] = biological target: Gal(b1-4)GlcNAc(b1-3)Gal(b1-3)GlcNAc
Summary of the method: as §1

[31] = biological target: Gal(b1-4)GlcNAc(b1-3)Gal(b1-4)Glc
Summary of the method: as §1

[32] = biological target: Gal(b1-4)GlcNAc(b1-3)Gal(b1-4)GlcNAc
Summary of the method: as §1

[33] = biological target: Gal(b1-4)GlcNAc(b1-3)Gal(b1-4)GlcNAc(b1-2)Man(a1-3)[Gal(b1-4)GlcNAc(b1-3)Gal(b1-4)GlcNAc(b1-2)Man(a1-6)]Man(b1-4)GlcNAc(b1-4)GlcNAc
Summary of the method: as §1

B1: Erv41-EDTA (Saccharomyces cerevisiae), Q04651 (protein)
chain: MKFLVNVALVFMVVYISYIYAAAPEHHHHHHDYDIPTTENLYFQGAMGYIDQQYVVDSQVRDTVQINMDIYVNTKCDWLQINVRDQTMDRKLVLEELQLEEMPFFIPYDTKVNDINEIITPELDEILGEAIPAEFREKLDTRSFFDESDPNKAHLPEFNGCHVFGSIPVNRVSGELQITAKSLGYVASRKAPLEELKFNHVINEFSFGDFYPYIDNPLDNTAQFNQDEPLTTYVYYTSVVPTLFKKLGAEVDTNQYSVNDYRYLYKDVAAKGDKMPGIFFKYNFEPLSIVVSDVRL
glycan array binding signal (z-score) [1]: -0.459
glycan array binding signal (z-score) [2]: 0.129
glycan array binding signal (z-score) [3]: -0.284
glycan array binding signal (z-score) [4]: -0.34
glycan array binding signal (z-score) [5]: -0.127
glycan array binding signal (z-score) [6]: -1.1
glycan array binding signal (z-score) (Gal(b1-4)Gal): 0.294
glycan array binding signal (z-score) [7]: -0.701
glycan array binding signal (z-score) [8]: -0.454
glycan array binding signal (z-score) (Gal(b1-4)Glc): -0.527
glycan array binding signal (z-score) (Gal(b1-4)Glc6S): 0.156
glycan array binding signal (z-score) (Gal(b1-4)GlcNAc): -0.475
glycan array binding signal (z-score) [9]: -1.28
glycan array binding signal (z-score) (Gal(b1-4)GlcNAc(b1-2)Man): -0.249
glycan array binding signal (z-score) [10]: 0.159
glycan array binding signal (z-score) [11]: -0.382
glycan array binding signal (z-score) [12]: 1.05
glycan array binding signal (z-score) [13]: -0.982
glycan array binding signal (z-score) [14]: 0.507
glycan array binding signal (z-score) [15]: -1.18
glycan array binding signal (z-score) [16]: 0.638
glycan array binding signal (z-score) [17]: -0.987
glycan array binding signal (z-score) [18]: -0.604
glycan array binding signal (z-score) [19]: -0.581
glycan array binding signal (z-score) [20]: -0.568
glycan array binding signal (z-score) [21]: -0.294
glycan array binding signal (z-score) [22]: -1.49
glycan array binding signal (z-score) [23]: -0.565
glycan array binding signal (z-score) [24]: -1.56
glycan array binding signal (z-score) [25]: 0.313
glycan array binding signal (z-score) [26]: 1.8
glycan array binding signal (z-score) [27]: 0.543
glycan array binding signal (z-score) [28]: 0.231
glycan array binding signal (z-score) [29]: -0.758
glycan array binding signal (z-score) [30]: -0.245
glycan array binding signal (z-score) [31]: -0.262
glycan array binding signal (z-score) [32]: -0.833
glycan array binding signal (z-score) [33]: 1.39
